Data published in patent US20260139030A1.

Experiments:
[1] = target: Galectin-9; assay: MSD ELISA: Galectin-9 coated, protein titrated, SULFO-TAG anti-mouse antibody detection (FIG. 5H)
[2] = target: Galectin-9; assay: MSD ELISA (legend of FIG. 5H)
[3] = target: carcinoembryonic antigen-related cell adhesion molecule 1 (CEACAM1); assay: MSD ELISA (legend of FIG. 5M)
[4] = target: hyaluronan binding protein 1 (HABP1); assay: MSD ELISA: HABP1 coated, protein titrated, SULFO-TAG anti-mouse antibody detection (FIG. 5L)
[5] = target: Inter-α-inhibitor heavy chain 4 (ITIH4); assay: MSD ELISA: ITIH4 coated, protein titrated, SULFO-TAG anti-mouse antibody detection (FIG. 5K)
[6] = target: carcinoembryonic antigen-related cell adhesion molecule 1 (CEACAM1); assay: MSD ELISA: CEACAM1 coated, protein titrated, SULFO-TAG anti-mouse antibody detection (FIG. 5M)
[7] = target: hyaluronan binding protein 1 (HABP1); assay: MSD ELISA (legend of FIG. 5L)
[8] = target: Inter-α-inhibitor heavy chain 4 (ITIH4); assay: MSD ELISA (legend of FIG. 5K)

Measured: binding

B1: mouse TNFR2-Fc-Clec7a chimeric protein (Fc fusion)
chain: VPAQVVLTPYKPEPGYECQISQEYYDRKAQMCCAKCPPGQYVKHFCNKTSDTVCADCEASMYTQVWNQFRTCLSCSSSCTTDQVEIRACTKQQNRVCACEAGRYCALKTHSGSCRQCMRLSKCGPGFGVASSRAPNGNVLCKACAPGTFSDTTSSTDVCRPHRICSILAIPGNASTDAVCAPESPTLSAIPRTLYVSQPEPTRSQPLDQEPGPSQTPSILTSLGSTPIIEQSTKGGVPRDCGCKPCICTVPEVSSVFIFPPKPKDVLTITLTPKVTCVVVDISKDDPEVQFSWFVDDVEVHTAQTQPREEQFNSTFRSVSELPIMHQDWLNGKEFKCRVNSAAFPAPIEKTISKTKGRPKAPQVYTIPPPKEQMAKDKVSLTCMITDFFPEDITVEWQWNGQPAENYKNTQPIMDTDGSYFVYSKLNVQKSNWEAGNTFTCSVLHEGLHNHHTEKSLSHSPGKIEGRMDGHNSGRNPEEKDNFLSRNKENHKPTESSLDEKVAPSKASQTTGGFSQPCLPNWIMHGKSCYLFSFSGNSWYGSKRHCSQLGAHLLKIDNSKEFEFIESQTSSHRINAFWIGLSRNQSEGPWFWEDGSAFFPNSFQVRNTAPQESLLHNCVWIHGSEVYNQICNTSSYSICEKEL
binds: [1] | [2]

B2: mouse TNFR2-Fc-DC-SIGN chimeric protein (Fc fusion)
chain: VPAQVVLTPYKPEPGYECQISQEYYDRKAQMCCAKCPPGQYVKHFCNKTSDTVCADCEASMYTQVWNQFRTCLSCSSSCTTDQVEIRACTKQQNRVCACEAGRYCALKTHSGSCRQCMRLSKCGPGFGVASSRAPNGNVLCKACAPGTFSDTTSSTDVCRPHRICSILAIPGNASTDAVCAPESPTLSAIPRTLYVSQPEPTRSQPLDQEPGPSQTPSILTSLGSTPIIEQSTKGGVPRDCGCKPCICTVPEVSSVFIFPPKPKDVLTITLTPKVTCVVVDISKDDPEVQFSWFVDDVEVHTAQTQPREEQFNSTFRSVSELPIMHQDWLNGKEFKCRVNSAAFPAPIEKTISKTKGRPKAPQVYTIPPPKEQMAKDKVSLTCMITDFFPEDITVEWQWNGQPAENYKNTQPIMDTDGSYFVYSKLNVQKSNWEAGNTFTCSVLHEGLHNHHTEKSLSHSPGKIEGRMDVKVYKIPSSQEENNQMNVYQELTQLKAGVDRLCRSCPWDWTHFQGSCYFFSVAQKSWNDSATACHNVGAQLVVIKSDEEQNFLQQTSKKRGYTWMGLIDMSKESTWYWVDGSPLTLSFMKYWSKGEPNNLGEEDCAEFRDDGWNDTKCTNKKFWICKKLSTSCPSK
binds: all assays above

B3: mouse TNFR2-Fc-Langerin chimeric protein (Fc fusion)
chain: VPAQVVLTPYKPEPGYECQISQEYYDRKAQMCCAKCPPGQYVKHFCNKTSDTVCADCEASMYTQVWNQFRTCLSCSSSCTTDQVEIRACTKQQNRVCACEAGRYCALKTHSGSCRQCMRLSKCGPGFGVASSRAPNGNVLCKACAPGTFSDTTSSTDVCRPHRICSILAIPGNASTDAVCAPESPTLSAIPRTLYVSQPEPTRSQPLDQEPGPSQTPSILTSLGSTPIIEQSTKGGVPRDCGCKPCICTVPEVSSVFIFPPKPKDVLTITLTPKVTCVVVDISKDDPEVQFSWFVDDVEVHTAQTQPREEQFNSTFRSVSELPIMHQDWLNGKEFKCRVNSAAFPAPIEKTISKTKGRPKAPQVYTIPPPKEQMAKDKVSLTCMITDFFPEDITVEWQWNGQPAENYKNTQPIMDTDGSYFVYSKLNVQKSNWEAGNTFTCSVLHEGLHNHHTEKSLSHSPGKIEGRMDQAVFYPRLMGKILDVKSDAQMLKGRVDNISTLGSDLKTERGRVDDAEVQMQIVNTTLKRVRSQILSLETSMKIANDQLQILTMSWGEVDSLSAKIPELKRDLDKASALNTKVQGLQNSLENVNKLLKQQSDILEMVARGWKYFSGNFYYFSRTPKTWYSAEQFCISRKAHLTSVSSESEQKFLYKAADGIPHWIGLTKAGSEGDWYWVDQTSFNKEQSRRFWIPGEPNNAGNNEHCANIRVSALKCWNDGPCDNTFLFICKRPYVQTTE
binds: [1] | [2]

These are yes or no findings as the source states them, for the method shown. Binding can be weak; no strength is given. Tags and fused reporters may be left off the sequences shown.
